Measured values from PubChem BioAssay AID1508600 (Functional Genomics Laboratory (NCATS/FGL), 2020).
Among all 53,000 sequences or so, about 3,700 (7%) were called active.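 How the source made its calls: active means gene knockdowns whose robust z-score for IL-1 alpha signal is at least 2 or at most -2, so actives lie on both sides; inactive means the rest.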 The list shows a part of the results.

Test: Components of the Cytosolic LPS Sensing Pathway: Gene Identification via Genome-wide siRNA Screen
Conditions: RAW264.7 macrophages, IL-1a HTRF, actives lie on both sides, screened at 100 nM (by protocol), cells primed 5 h with Pam3CSK4 first
Description: Non-canonical inflammasome activation by cytosolic LPS is a critical component of the host response to Gram-negative bacterial infection, however we lack a comprehensive understanding of the cellular processes that control this pathway. Here we describe a genome-wide siRNA screen to identify genes regulating the mouse macrophage IL-1 alpha response to cytosolic LPS.
RAW264.7 cells were maintained in complete DMEM media, comprising DMEM with 4.5 g/L glucose, 10% FBS (Gemini Bio-Products, West Sacramento, CA), 2 mM Glutamine (Lonza) and 20 mM HEPES (Lonza), hereafter complete DMEM.
The RNAi screen was conducted in 384-well format using the Ambion Silencer Mouse Genome siRNA Library (#4391425), which consists of three unique, nonoverlapping, nonpooled siRNAs for each of 17,000 gene targets. siRNA reagents ([…]) were stamped into 384-well white flat-bottom microplates (Corning, 3570) using a Velocity11 VPrep liquid handling system (Agilent) integrated into a BioCel robotic platform (Agilent) in columns 1-22, leaving columns 23-24 empty for negative (Ambion, Negative control #1) and positive (mouse Casp4) controls, respectively. The median value of each plate's negative control column was used to normalize sample wells, and the positive control was used to assess transfection efficiency and assay performance.
Lipofectamine RNAiMAX Transfection Reagent ([…]; Invitrogen) was added in […] serum-free, antibiotic-free media to plate wells using a Thermo Scientific Matrix WellMate and Microplate Stacker. Plates were incubated for 45 min at room temperature to allow for the sufficient formation of siRNA-lipid complexes. Cells were seeded at a density of 1x10^4 cells per well in 20 microL media containing 20% (vol/vol) FBS without antibiotics. The final concentration of siRNA in each well was 100 nM. Cells were cultured for 48h at 37 degrees C in 5% CO2 before addition of […] of TLR ligand Pam3CSK4 for 5 hours. The medium was then removed, replaced with […] growth media and cell were transfected with […] of LipidA and TransIT-TKO (Mirus) for 24 hour. At the end of the LipidA treatment, […] of supernatant was transferred to a 384 Greiner Bio-one non-binding low volume plate and […] of IL-1a HTRF reagent (Cisbio, 62MIL1APEH) was added and incubated at room temperature overnight. The plates were read on an EnVision plate reader (PerkinElmer). Cell viability was measured by adding 20ul Cell Titer Glo to the original plate and running a luminescence read on the EnVision. The quantified IL-1a signal for each siRNA gene-targeted well was divided by the median of the negative control wells and multiplied by 100 to achieve a negative control normalized value for each well/siRNA. This normalized value was then used to generate a robust z-score by first taking the log of each value and then by subtracting the median and dividing by the […].

Row | Sequence | z-score
1 | GCAGUGCCUGCAGAUUCUUTT against Rnf208 | inactive: 1.06
2 | GGAAACAUGACAGCUGCUCTT against Arpc5 | inactive: 1.12
3 | GGAAGGAGUUCGAAGUCAUTT against Ralgds | inactive: 0.902
4 | GGGCGAAGGGAUUACUAUUTT against Rhpn1 | inactive: -0.325
5 | GAACUUUAUCACCUGCUUCTT against C030006K11Rik | inactive: -0.112
6 | GCCUAUUGGGUCUACCUCCTT against C8g | inactive: -0.398
7 | GGAUUUGUGCCCUCCUUUCTT against Ucp3 | inactive: 1.27
8 | GGUACAGCUUAUGGAUUAATT against Pdgfra | inactive: -0.193
9 | GGUCAUUUAUGAGAGGGCUTT against Thap11 | inactive: 0.378
10 | GGAAGAACUUGUCUCUUUUTT against Tmtc2 | inactive: 0.501
11 | CCAAUAGCUUCCAGAAACATT against Exoc3l4 | inactive: -1.93
12 | GGAGUAUGCCCAUUCCAUCTT against Grm8 | inactive: -0.474
13 | GGGUUGUAUGGCUCAAAUATT against Olfr728 | inactive: 0.734
14 | CCCUAUCUUCAGGCCAUUGTT against Gm10283 | inactive: -1.97
15 | GGCAGUGUUUGGCAAAUAUTT against Rbmx | inactive: 0.945
16 | GCAGCUGGCUGCUUUCACATT against Tmem201 | inactive: -0.344
17 | GGAAUUCAUGACCUUUACATT against Ykt6 | inactive: 0.657
18 | GCAUCCUUUGUCGAAGUGGTT against Clec18a | inactive: -0.495
19 | GCUUGUGAUCGACUCUGCATT against Acap3 | inactive: -1.6
20 | GGUCCCUGCUUUGAUUCGATT against Olfr90 | inactive: 0.502
21 | GGACAAAGAAAAAGAUUCCTT against Stxbp6 | inactive: -0.169
22 | GGACGUGGUGUAAAAUAGCTT against Cdkn2b | inactive: -0.241

Row | Sequence | z-score
23 | GGUGUAUGGCUUCUGUUGATT against Rab35 | inactive: 1.37
24 | CCCAAAACUCUAGCUACUATT against Olfr824 | active: -3.03
25 | GCAAAGUUACCUCAGUUCUTT against Olfr539 | inactive: 0.0366
26 | GGAGAGAGACACAAGCUUGTT against Map7d1 | inactive: 1.07
27 | GUAAUCUGGCGAUUGUCUGTT against H2ac4 | inactive: -0.783
28 | GGGAAAUCCGAUAUUCCCUTT against Lats2 | inactive: 1.1
29 | GGAACAGUUUCUAAAACAGTT against Mapkbp1 | inactive: -1.83
30 | CCUAUGGCAUCGUGUAUCGTT against Cdk10 | inactive: 0.566
31 | GCACUUACCGGAUCCAUUGTT against Clk4 | inactive: -0.793
32 | CGCAGACAACAGAUAAGAATT against Pdpn | inactive: -0.589
33 | GCUGAGACCUUUAUUUAAATT against Col11a2 | inactive: 0.955
34 | GGUGCAGGCUCUCAAGAAGTT against Ccdc106 | inactive: 0.779
35 | GGGUUUCUGCAUUGACAUUTT against Grin2d | inactive: -0.247
36 | GGCUGUUCGUACUAUAGCUTT against Gpr119 | inactive: 0.334
37 | GGCUGUUCAAAGUGACCCUTT against Hbp1 | active: -3.11
38 | GGAAUAUUCUCUCAUCACATT against Mmachc | active: -2.07
39 | CGCACUUUGGCUUGUAAUUTT against Smad6 | inactive: 0.327
40 | GGAAGAAGUUGGAGAUGUUTT against Hsd17b11 | inactive: -0.629
41 | CGACCGGUGUCUUGCUUUUTT against Hint1 | inactive: 0.318
42 | GGAAUAUUUUUUCUGGGAGTT against Ugt8a | inactive: -0.108
43 | GGUAAAUUUGACUACCUGGTT against Fbxo36 | inactive: 0.129
44 | GCAACAAAUUUGAAUCAGATT against Chic2 | inactive: -0.185

Row | Sequence | z-score
45 | CCGACACAAGAUGCUCAGUTT against Tmem9 | active: -2.3
46 | AGAAGAUACCGAUCAAGCGTT against Nsmce3 | inactive: 0.049
47 | GCUUGUCAUUCUUGUUGUATT against Olfr348 | inactive: -0.208
48 | GCAUUGAGCUCGACUUCUGTT against Cpa3 | inactive: -0.533
49 | GCACUCUCAGCAUUGGAUUTT against Sec22b | inactive: -0.751
50 | GGAUAUGCUCAGAGGUUUUTT against Pex11g | active: 2.2
51 | GGAAACCAGAAAAACUGAATT against Parg | inactive: 0.653
52 | GGUUAAGUUCCUCUGGAACTT against Pnliprp2 | inactive: -0.0719
53 | GGCUACUUUUUGGAACAUCTT against Uqcrc1 | inactive: 0.722
54 | GGUCGGAUGGAUUCAAAUUTT against Rab3gap2 | inactive: 1.69
55 | CCUGUAAAGUUCUUGUCGGTT against Ccrl2 | inactive: 0.45
56 | CCUGAACAUGAGUUAAAAGTT against Lmo4 | inactive: 0.156
57 | GGCACCUUUCAGAAAUCCCTT against 4931406B18Rik | inactive: -1.58
58 | GGCAAUGAGUCUGACCUCUTT against Capg | inactive: -1.39
59 | GCUGCUAUGACCUAUGGCATT against Sptlc2 | inactive: -0.543
60 | GCCCAUUAUUGCUGAGACUTT against Fam24a | inactive: -1.6
61 | CCCAAUGUCCCAACUCACATT against Baalc | inactive: -0.341
62 | GGACAAGUCGAGUUUCAAGTT against Zfp503 | inactive: 1.98
63 | CCAAUGAAACAUUUACUUCTT against Stmn4 | inactive: -0.045
64 | GCUGUUGAUGUAGUUUGGUTT against Dctd | inactive: -0.131
65 | GGUCAGAAGGUGUGUUAUATT against Rad52 | inactive: 0.338
66 | GGACCUGGACCUUUUAGAGTT against Vegfb | inactive: 1.34

Row | Sequence | z-score
67 | GGUAGAAUUACUGUGUACUTT against Slc26a4 | inactive: -1.47
68 | GGCAUUUGAAGAUGUUUCUTT against Hmgb3 | inactive: 0.202
69 | GGCCGUGGUAGAUUUCCUCTT against Klhl36 | inactive: 0.425
70 | GGAUGUGAUCCUUUUUUGATT against Nat8f2 | inactive: -0.801
71 | GCCAAAAUAAUCCUUGGGATT against Doxl1 | inactive: -0.434
72 | CGUGGAUAAAGAUAACCCGTT against Znrd2 | inactive: -0.117
73 | GGCAAAGACAAGAAGCUGUTT against Drap1 | inactive: -0.445
74 | GGACAGUGAACUUUUGACCTT against Nkain4 | inactive: 0.764
75 | GGAACAGCAGCAUCACAGUTT against Eml3 | inactive: -0.0844
76 | CCAAAGCCUGAAAUGGUGGTT against Cxcr4 | active: -2.36
77 | GCGUGCAGCCCUCAAUGAATT against Ppp2r5b | inactive: 0.84
78 | GGGACUCGGGCAGUAUUCATT against Tgm5 | inactive: -0.185
79 | GCUUGGUCGUAUAUUGUUGTT against Slc9c1 | inactive: 1.57
80 | GGCCUAUGAAAAGUGGCGUTT against Dpysl3 | inactive: 0.297
81 | GGAAUGCUACUGCUCUCCUTT against Qrfp | inactive: -1.65
82 | GGAAGUUCAAGACAUUGUUTT against Rabgef1 | inactive: 0.784
83 | GGAAAAACUGAAACAGUUUTT against Eif3a | inactive: 1.06
84 | CCUUUCGGACAAAAUAUGUTT against Vnn3 | inactive: 0.0615
85 | GGAGACUGAGGAAGAAUCUTT against Atcay | inactive: -0.302
86 | CCUCAAAGAUUAAUUCCGGTT against Acap2 | inactive: -1.38
87 | GGAGUUUGACUCAAUAUCATT against Napb | inactive: 1.24
88 | GCAACUUUAGCAACUGCCCTT against Cc2d1b | inactive: 0.856

Row | Sequence | z-score
89 | GGCAUCCAAUCCUGUGGAGTT against Bcl11a | inactive: -0.62
90 | GCGAAAAAUUCGGCAGCAGTT against Arglu1 | inactive: -0.199
91 | GGCAGUCAGACUUAGAGACTT against Dqx1 | inactive: 0.488
92 | GGUACAGGAAACUCAAAUATT against Lrrc4 | inactive: 0.318
93 | GGCAUUCCCUGAAUAUCGUTT against Gpx2 | inactive: -0.91
94 | CCGUUUAACUUGGGCUGAUTT against Reg1 | inactive: -0.942
95 | GGUGUUGAAAUCGGUUUCCTT against Ube2v1 | inactive: -0.302
96 | CUCCUUGUCUACCUGAAUATT against Vmn1r213 | inactive: -1.44
97 | GCAAGACCAGUGGAGUGGUTT against Sncb | inactive: -0.16
98 | GGCACUGAUGAUUAAGCUUTT against Gale | inactive: -0.271
99 | GGAGUUAAUUGCCCGCAACTT against Rab19 | inactive: 0.588
100 | GGGUUUCUUCCUUGUCAGATT against Abcc3 | inactive: -1.79
101 | GGAGCUUGCCUGAUUUUGCTT against Rfx1 | inactive: -0.118
102 | GGCUGCCUAUCCCUAAACUTT against Cpt2 | inactive: -0.625
103 | CGUGGUUCUUCGAGUAGAUTT against Srsf5 | inactive: 1.35
104 | CCUCGUUCAUACGACAGAATT against Cep135 | inactive: 0.234
105 | GGAUUCAAAGUGUGCACAATT against Lrrc3b | inactive: 1.04
106 | GGACUUUCGAAGUAAGAUGTT against Tmem242 | inactive: -1.37
107 | GGCAAUGGAGUUUCAAUUUTT against Stard5 | inactive: -0.0861

Reprinted at random: 5 records from the list.
Row | Sequence | z-score
90 | GCGAAAAAUUCGGCAGCAGTT against Arglu1 | inactive: -0.199
89 | GGCAUCCAAUCCUGUGGAGTT against Bcl11a | inactive: -0.62
105 | GGAUUCAAAGUGUGCACAATT against Lrrc3b | inactive: 1.04
97 | GCAAGACCAGUGGAGUGGUTT against Sncb | inactive: -0.16
104 | CCUCGUUCAUACGACAGAATT against Cep135 | inactive: 0.234
